Reference: patent US20190322750A1
Results are given in words; binding and its absence hold for the method and conditions named. Some entries that bind do so weakly or less than the wild type. Blank lines part the entries; values can stand above or below the binder they belong to.

Sequences of proteins named here, by UniProt entry; tags and fusion partners are left off. Residues count along the entry.
UniProt Q9NZQ7, residues 19-239: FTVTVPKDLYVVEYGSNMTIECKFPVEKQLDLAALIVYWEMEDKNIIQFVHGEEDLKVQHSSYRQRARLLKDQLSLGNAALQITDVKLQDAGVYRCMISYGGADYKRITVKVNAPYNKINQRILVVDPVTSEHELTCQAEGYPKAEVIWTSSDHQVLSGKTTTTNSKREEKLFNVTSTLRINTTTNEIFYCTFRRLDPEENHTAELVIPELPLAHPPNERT

Assays:
[1] = target: antigen PD-L1 coated on the immunoplate in the monoclonal scFv-phage ELISA (UniProt Q9NZQ7); assay: monoclonal scFv-phage ELISA on coated antigen PD-L1; reference: parent 16E12
[2] = target: antigen PD-L1 coated on the immunoplate in the monoclonal scFv-phage ELISA (UniProt Q9NZQ7); assay: monoclonal scFv-phage ELISA on coated antigen PD-L1

binding [1]: binds
B1: PDL1-16E12 (LS/4B7) (scFv, V domains shown)
VH: QMQLVQSGAEVKKPGSSVKVSCKASGGTFSSYAISWVRQAPGQGLEWMGRIIPILGIANYAQKFQGRVTITADKSTSTAYMELSSLRSEDTAVYYCAKPRDGYNLVAFDIWGQGTMVTVSS
VL: QLVLTQPPSVSGAPGQRVTISCTGTNSNIGAGYDVHWYQQLPGTAPKLLIVTNHNRPSGVPDRFSGSKSDTSASLALTGLQAEDEATYYCQSYDSRLSGPVFGTGTKVTVL

binding [2]: binds
B2: PDL1-23E10 (scFv, V domains shown)
VH: QMQLVESGAEVKKPGSSVKVSCKVSGENFRSHAISWVRQAPGQGLEWMGRIIPIVGLADYPQKFQGRVTISADESTGTAYMDLSSLRSEDTAVYYCVTGRPPWHWGQGILITVSS
VL: QLVLTQPPSVSGAPGQRVTISCTGSSSNIGAGYDVHWYQQLPGTAPKLLIYSNRNRPSGVPDRFSGSKSGTSASLAITGLQAEDEADYYCQSYDSSLSGPNYVFGTGTKVTVL
